PubChem BioAssay AID1259405 – NCATS | 2018
The deposit covers about 50,000 reagents; shown is a random part of them. About 4,000 of them (8%) were called active. 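Mouse siRNA library applied to hamster cells; one well for each siRNA.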 Entries without a mark were called inactive. The numbers tell different reagents against one gene apart. Reagent sequences are not shown.

- Test: 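Mouse-designed siRNAs used to find CHO productivity engineering targets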 (primary screen)
- Cells: Chinese hamster CHO-K1 ovary cells with stable secreted eGFP expression
- Knock-down reagent: single siRNA against mouse genes, 0.8 pmol siRNA per well (2 µl of 400 nM stock)
- Timing: 3 days
- Read-out: 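Percent of the per-plate non-targeting control median for intracellular GFP per well by laser scanning cytometry and for cell viability by ATP luminescence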
- Direction: GFP, % of control: higher = more GFP per well, higher productivity; viability (ATP), % of control: higher = more viable cells (more ATP)
- Rule for the call: 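Called active when intracellular GFP, relative to negative control, is at or above 120%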

| gene symbol | siRNA no. | GFP, % of control | viability (ATP), % of control |
| --- | --- | --- | --- |
| Spmap2 | 1 | 71.7 | 56.6 |
| Spmap2 | 2 | 40 | 63.1 |
| Spmap2 | 3 | 126 (active) | 119 |
| Zfa-ps | 1 | 102 | 88.8 |
| Zfa-ps | 2 | 124 (active) | 122 |
| Zfa-ps | 3 | 86.3 | 81.4 |
| Grm4 | 1 | 42.8 | 68.1 |
| Grm4 | 2 | 67.7 | 70.3 |
| Grm4 | 3 | 68.9 | 74.3 |
| Icam5 | 1 | 153 (active) | 97.4 |
| Icam5 | 2 | 83 | 71.2 |
| Gm11733 | 1 | 81.6 | 82.1 |
| Gm11733 | 2 | 86.7 | 48.1 |
| Gm11733 | 3 | 96.8 | 95 |
| Hspa8 | 1 | 52.8 | 16.4 |
| Hspa8 | 2 | 40.2 | 11.7 |
| Hspa8 | 3 | 51.4 | 21.1 |
| Rcsd1 | 1 | 110 | 100 |
| Rcsd1 | 2 | 53 | 69.5 |
| Rcsd1 | 3 | 27.3 | 59 |
| Slc39a6 | 1 | 95.5 | 98.3 |
| Slc39a6 | 2 | 44.8 | 34.7 |
| Slc39a6 | 3 | 98 | 84.9 |
| Tubb6 | 1 | 84.1 | 75.8 |
| Tubb6 | 2 | 94.9 | 109 |
| Ppm1m | 1 | 64 | 85.4 |
| Ppm1m | 2 | 50.6 | 40 |
| Ppm1m | 3 | 94.5 | 104 |
| Cad | 1 | 101 | 98.8 |
| Cad | 2 | 91.4 | 95.1 |
| Cad | 3 | 79 | 62.5 |
| Rsph1 | 1 | 54.2 | 84.3 |
| Rsph1 | 2 | 60.1 | 84.9 |
| Rsph1 | 3 | 104 | 93.3 |
| Itpka | 1 | 107 | 69.5 |
| Xrcc1 | 1 | 114 | 117 |
| Xrcc1 | 2 | 85.6 | 93.4 |
| Dnaja1 | 1 | 83.6 | 86.6 |
| Dnaja1 | 2 | 86 | 78.1 |
| Dnaja1 | 3 | 58.5 | 104 |
| Tgtp1 | 1 | 41.9 | 65.6 |
| Tgtp1 | 2 | 84 | 99.9 |
| Tgtp1 | 3 | 83.4 | 132 |
| Rhox7a | 1 | 120 | 105 |
| Rhox7a | 2 | 123 (active) | 77.8 |
| Rhox7a | 3 | 65.9 | 49.8 |
| Lysmd3 | 1 | 56.7 | 63.2 |
| Lysmd3 | 2 | 73 | 66.9 |
| Lysmd3 | 3 | 69.9 | 69.6 |

8 entries already listed, ordered by “viability (ATP), % of control”, high to low:
| gene symbol | siRNA no. | GFP, % of control | viability (ATP), % of control |
| --- | --- | --- | --- |
| Icam5 | 1 | 153 (active) | 97.4 |
| Gm11733 | 3 | 96.8 | 95 |
| Gm11733 | 1 | 81.6 | 82.1 |
| Grm4 | 3 | 68.9 | 74.3 |
| Icam5 | 2 | 83 | 71.2 |
| Gm11733 | 2 | 86.7 | 48.1 |
| Hspa8 | 1 | 52.8 | 16.4 |
| Hspa8 | 2 | 40.2 | 11.7 |

More results:
| gene symbol | siRNA no. | GFP, % of control | viability (ATP), % of control |
| --- | --- | --- | --- |
| Bicc1 | 1 | 72.2 | 80.1 |
| Bicc1 | 2 | 85.1 | 77.5 |
| Bicc1 | 3 | 43.8 | 47.8 |
| Or4b1d | 1 | 43.3 | 31.4 |
| Or4b1d | 2 | 191 (active) | 56.9 |
| Or4b1d | 3 | 34.3 | 68.8 |
| Tprg1 | 1 | 72 | 72.5 |
| Tprg1 | 2 | 107 | 88.3 |
| Tprg1 | 3 | 106 | 134 |
| Samd4b | 1 | 66.4 | 63.9 |
| Samd4b | 2 | 69.9 | 74 |
| Samd4b | 3 | 109 | 115 |
| Fads6 | 1 | 83 | 86 |
| Fads6 | 2 | 93.9 | 97.5 |
| Psmb4 | 1 | 11.1 | 4.77 |
| Psmb4 | 2 | 29.5 | 19.9 |
| Psmb4 | 3 | 16.7 | 6.19 |
| Vps33a | 1 | 52.9 | 66.7 |
| Vps33a | 2 | 34.4 | 60.9 |
| Vps33a | 3 | 134 (active) | 96.7 |
| Pogz | 1 | 164 (active) | 144 |
| Pogz | 2 | 63.6 | 69.3 |
| Pex11g | 1 | 66.9 | 53.7 |
| Pex11g | 2 | 90.5 | 62.8 |
| Pex11g | 3 | 53.8 | 56.6 |
| Ftsj1 | 1 | 120 (active) | 108 |
| Ftsj1 | 2 | 87.7 | 83.5 |
| Ftsj1 | 3 | 49.8 | 65.3 |
| Atg4c | 1 | 86.1 | 93 |
| Atg4c | 2 | 79.6 | 78.6 |
| Ago1 | 1 | 93.5 | 73 |
| Ago1 | 2 | 65.8 | 88.5 |
| Ago1 | 3 | 129 (active) | 108 |
| Ttc12 | 1 | 62 | 54.1 |
| Ttc12 | 2 | 74.6 | 71.1 |
| Ttc12 | 3 | 58.9 | 71.4 |
